Measured values from PubChem BioAssay AID1117319 (Southern Research Institute, 2015).
Several values for one entry are separate records, joined by “and”; a condition that tells them apart may be missing. Equal values may be shown once. Screen size: about 260,000 compounds; about 1,500 (0.58%) were called active. The inconclusive results got no clear call from the source; some entries with a clear call stand among them for comparison.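 How the source made its calls: active means inhibition above a set limit at one or more doses, reproduced on every date tested; inconclusive means results disagree between test dates, or hit never tested in dose response; inactive means the rest.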

Sequences of proteins named here, by UniProt entry; tags and fusion partners are left off. A change or cut given only in a name is not applied to a line headed by its entry.
UniProt P69720: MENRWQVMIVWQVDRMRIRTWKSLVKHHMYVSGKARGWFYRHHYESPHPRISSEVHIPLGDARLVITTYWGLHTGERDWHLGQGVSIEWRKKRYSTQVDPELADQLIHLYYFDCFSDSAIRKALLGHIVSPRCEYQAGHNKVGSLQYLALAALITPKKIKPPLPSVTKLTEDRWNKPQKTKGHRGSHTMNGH
UniProt P69721: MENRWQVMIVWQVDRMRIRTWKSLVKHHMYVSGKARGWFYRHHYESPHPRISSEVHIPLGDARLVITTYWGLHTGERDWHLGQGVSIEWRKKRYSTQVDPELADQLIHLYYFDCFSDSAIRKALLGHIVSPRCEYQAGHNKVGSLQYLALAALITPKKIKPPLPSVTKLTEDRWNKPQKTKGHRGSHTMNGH
UniProt P69722: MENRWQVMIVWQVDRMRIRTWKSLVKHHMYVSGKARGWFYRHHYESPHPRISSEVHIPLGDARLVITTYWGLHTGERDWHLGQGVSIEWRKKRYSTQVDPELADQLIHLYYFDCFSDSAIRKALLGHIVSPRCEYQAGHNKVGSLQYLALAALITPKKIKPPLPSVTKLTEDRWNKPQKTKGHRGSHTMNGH
UniProt P69723: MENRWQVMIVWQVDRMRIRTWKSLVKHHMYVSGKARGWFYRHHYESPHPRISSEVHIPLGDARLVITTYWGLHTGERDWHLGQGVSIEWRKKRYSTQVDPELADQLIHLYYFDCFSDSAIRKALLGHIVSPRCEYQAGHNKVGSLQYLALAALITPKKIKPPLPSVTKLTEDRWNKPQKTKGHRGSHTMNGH
UniProt Q9HC16: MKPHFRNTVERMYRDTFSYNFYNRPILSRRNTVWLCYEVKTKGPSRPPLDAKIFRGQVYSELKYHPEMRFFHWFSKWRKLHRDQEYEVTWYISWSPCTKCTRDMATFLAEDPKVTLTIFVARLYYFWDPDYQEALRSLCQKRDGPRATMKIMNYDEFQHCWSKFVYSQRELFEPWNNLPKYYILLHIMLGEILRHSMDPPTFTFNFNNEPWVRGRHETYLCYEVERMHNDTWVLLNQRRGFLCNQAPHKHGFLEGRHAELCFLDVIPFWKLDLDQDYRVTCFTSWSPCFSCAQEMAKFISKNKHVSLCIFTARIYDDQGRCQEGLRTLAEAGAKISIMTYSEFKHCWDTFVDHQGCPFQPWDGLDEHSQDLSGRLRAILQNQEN

What follows are molecules tested against Virion infectivity factor (Human immunodeficiency virus type 1 group M subtype B (isolate BH10)) + Virion infectivity factor (Human immunodeficiency virus type 1 group M subtype B (isolate BRU/LAI)) + Virion infectivity factor (Human immunodeficiency virus type 1 group M subtype B (isolate PCV12)) + Virion infectivity factor (Human immunodeficiency virus type 1 group M subtype B (isolate HXB2)) + DNA dC->dU-editing enzyme APOBEC-3G (Homo sapiens) (UniProt P69720+P69721+P69722+P69723+Q9HC16) (assay: inhibitors of Vif binding to APOBEC3G peptide, primary screen, biochemical, TR-FRET, GST-Vif 1-94, biotin-A3G peptide, dose response retest (AID 1117319;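 further: Vif residues 1-94 fused to GST binding biotinylated APOBEC3G peptide 110-148; 0% = full assay without inhibitor and 100% = GST in place of GST-Vif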)). Conditions: stronger effect = higher value.
`COc1cccc(NCc2cc3c(C(C)(C)C)nn(-c4ccccc4)c3[nH]c2=O)c1` was tested, and the inhibition was inconclusive: 36.8%. In the case of `CCCN(CCC)C1=N/C(=C\c2ccco2)C(=O)N1c1ccccc1`, the inhibition is reported as inconclusive: 36%. For `CCN(CC)C(=O)c1cccc2nc3ccccc3nc12`, the inhibition was inconclusive: 35.1%. For `Cc1cccc(OCc2nc(C#N)c(NCCN(C)C)o2)c1`, the inhibition was inconclusive: 54.2%. With `O=C(/C=C/c1ccco1)N(Cc1cccc(Br)c1)C1CCS(=O)(=O)C1` (stereo not drawn) the inhibition was inconclusive: 60.1%. In the case of `CN(C)S(=O)(=O)c1ccc(C(=O)Nc2cccnc2)cc1`, the inhibition is reported as inconclusive: 35.9%. `Cc1ccc(CNC(=O)Nc2ccccc2)cc1` was tested, and the inhibition was inconclusive: 17.5%. `CC1CC(C)CN(CCCNC(=O)c2cc3c(=O)[nH]c4ccccc4c3n2C)C1` (stereo not drawn) was tested, and the inhibition was inconclusive: 36.6%. `COC(=O)C1=C(N)N(c2ccc(F)cc2)C2=C(C(=O)CCC2)C1c1ccc2c(c1)OCO2` (stereo not drawn) was tested, and the inhibition was inactive: -32.1%. `COc1ccccc1NC(=S)N1CCCCCC1` was tested, and the inhibition was inactive: -0.41%. `CC(C(=O)Nc1cc([N+](=O)[O-])ccc1Cl)N1CCN(c2ccc(O)cc2)CC1` (stereo not drawn) was tested, and the inhibition was inconclusive: 40.2%. `O=C1/C(=C/c2cccc(Br)c2)SC(=S)N1CCC(=O)N(CCO)c1ccccc1` was tested, and the inhibition was inactive: -10.6%. For `COc1ccc(CNC(=O)CCS(=O)(=O)c2ccc(Br)cc2)cc1`, the inhibition was inconclusive: 33.6%. `CC(CC(=O)NCc1ccccc1)C1CCCO1` (stereo not drawn) was tested, and the inhibition was inconclusive: 26.1%. `COc1cccc(NS(=O)(=O)c2ccc3c(c2)NC(=O)CC(=O)N3)c1` was tested, and the inhibition was inactive: -6.3%. In the case of `Cc1cc(O)cc(O)c1C(=O)Cc1cnn(-c2ccccc2)c1`, the inhibition is reported as inconclusive: 76.2%. With `CCCCn1c(-c2ccccc2)nc2c(=O)n(C)c(=O)[nH]c21` the inhibition was inconclusive: 56%. In the case of `Cc1ccc(OC(=O)C(F)(F)F)c2c1NCCC2`, the inhibition is reported as inconclusive: 38.6%. In the case of `CCOC(=O)c1cc[n+](CC(=O)c2ccc(F)cc2)cc1`, the inhibition is reported as inconclusive: 41.8%. With `CCNc1nc(NC(C)C)nc(OCCOC(=O)c2ccccc2)n1` the inhibition was inconclusive: 34.4%. With `CCCCCn1c(SCC(=O)OCC)nc2cc(C(=O)N3CCC(C(N)=O)CC3)ccc2c1=O` the inhibition was inconclusive: 41%. With `O=[N+]([O-])c1ccc(S(=O)Cc2ccccc2)c([N+](=O)[O-])c1` (stereo not drawn) the inhibition was inconclusive: 33.2%. In the case of `C=C(C)[C@@H]1CC=C(CN2CCC(N3CCC(C(=O)N4CCCC4)CC3)CC2)CC1`, the inhibition is reported as inconclusive: 36.4%. For `Cc1nc2nc(C)c(CCC(=O)N3CCOCC3)c(C)n2n1`, the inhibition was inconclusive: 49.5%. With `CN(CCC#N)C(=O)CC1(Cc2ccccc2)CCOC(C)(C)C1` (stereo not drawn) the inhibition was inactive: -1.26%. In the case of `COCCCNC(=S)Nc1ccc2nc3n(c(=O)c2c1)CCCCC3`, the inhibition is reported as inactive: -4.36%. With `COc1cc(/C=N/n2cc(-c3ccccc3)[nH]c2=S)cc(OC)c1O` the inhibition was inconclusive: 40.8%. For `O=C(CCCN1C(=O)c2ccccc2C1=O)Nc1c2c(nc3c1CCC3)CCC2`, the inhibition was inconclusive: 34.6%. In the case of `Cc1ccccc1-n1c(SCC(=O)N2CCC(C(=O)O)CC2)nnc1-c1ccncc1`, the inhibition is reported as inconclusive: 47.3%. In the case of `Cc1ccc2nc(NNC(=O)c3ccc4c(c3)OCCO4)sc2c1`, the inhibition is reported as inconclusive: 34.6%. `O=C(/C=C/c1cccc([N+](=O)[O-])c1)N1CCN(c2ccccc2F)CC1` was tested, and the inhibition was inconclusive: 42.7%. With `CCCCOC(=O)Nc1cc(OC)c(Cl)cc1OC` the inhibition was inconclusive: 55.7%. For `O=C(O)c1ccc(N2C(=O)CSC2c2cccc([N+](=O)[O-])c2)cc1` (stereo not drawn), the inhibition was inactive: -1.67%. `CC1CCCCN1C(=O)CSc1nnc(Cc2ccccc2)n1C` (stereo not drawn) was tested, and the inhibition was inconclusive: 33.1%. With `Cc1ccc(NC(=O)Cc2nc(CCl)cs2)cc1` the inhibition was inconclusive: 52.3%. In the case of `C/C(=N/NC(=O)Cc1cc(=O)[nH][nH]1)c1ccc([N+](=O)[O-])cc1`, the inhibition is reported as inconclusive: 53.7%. In the case of `CC(NCc1cc(Br)ccc1OCC(=O)NCc1ccccc1)c1ccccc1` (stereo not drawn), the inhibition is reported as inconclusive: 52.1%. In the case of `CCCn1c(N)c(C(=O)COC(=O)c2cccc(S(=O)(=O)N3CCOCC3)c2)c(=O)[nH]c1=O`, the inhibition is reported as inconclusive: 40%. For `CCOc1ccc(N2C(=O)/C(=C/c3ccco3)N(C)C2=S)cc1`, the inhibition was inconclusive: 41.1%. With `CC(=O)Nc1ncc(Cc2cccc(Cl)c2Cl)s1` the inhibition was inconclusive: 47.1%. With `O=S(NCc1ccco1)C12CC3CC(CC(C3)C1)C2` (stereo not drawn) the inhibition was inconclusive: 58.8%. `CN(C(=O)c1ccc(=O)[nH]c1)C1(C(=O)NC2CCCCC2)CCCCC1` was tested, and the inhibition was inconclusive: 50.3%. In the case of `Cc1ccc2c(c1)c1cccc3c1n2CCN3CCC(N)=O`, the inhibition is reported as inconclusive: 61.9%. In the case of `Cn1c(=O)[nH]c(=O)c2c1nc(Br)n2CCCO`, the inhibition is reported as inconclusive: 33.9%. For `COc1ccc2c(=O)c3c(=O)n(Cc4ccco4)c(-c4ccco4)nc3oc2c1`, the inhibition was inconclusive: 41.9% and inactive: 6.47%. `CCC1=C/C(=C/c2sc3ccccc3[n+]2CC)CC(C)(C)C1` was tested, and the inhibition was inconclusive: 33%. For `O=C(Cn1cnc([N+](=O)[O-])n1)N/N=C/c1cccc(Cl)c1`, the inhibition was inconclusive: 58%. In the case of `COc1ccc(-n2c(Cc3cccn3C)nnc2SCC(=O)Nc2ccc(C)cc2)cc1`, the inhibition is reported as inconclusive: 35.2%. For `Cc1ccccc1-c1ccc(Nc2ccc(N3CCOCC3)cc2)nn1`, the inhibition was inconclusive: 29.4%. With `COc1ccc(-n2nc3c(c2NC(=O)c2ccc4c(c2)OCO4)CS(=O)(=O)C3)cc1` the inhibition was inconclusive: 58.4%. In the case of `COc1cc(C2C(Oc3ccccc3C)C(=O)N2Cc2ccc(F)cc2)cc(OC)c1OC` (stereo not drawn), the inhibition is reported as inconclusive: 41.6%. For `CCCCn1c(/N=C/c2ccc(N(C)C)cc2)nc2ccccc21`, the inhibition was inconclusive: 34.3%. For `CCN1CCN(C(=O)CN(c2cccc(Br)c2)S(=O)(=O)c2ccccc2)CC1`, the inhibition was inconclusive: 46.2%. In the case of `CN1[C@@H]2CC(OC(=O)[C@H](CO)c3ccccc3)C[C@H]1[C@@H]1O[C@@H]12` (stereo partly drawn), the inhibition is reported as inconclusive: 41.6%. With `O=C(c1cccc(S(=O)(=O)N2CCc3ccccc32)c1)N1CCN(c2ccccn2)CC1` the inhibition was inactive: -7.91%. `O=C(Nc1cccc(-c2nc3cc(Cl)ccc3o2)c1)C1CCCO1` (stereo not drawn) was tested, and the inhibition was inconclusive: 52.4%. With `CCc1nnc(NS(=O)(=O)c2ccc(N=Cc3c(C)[nH]n(-c4ccc(Cl)cc4)c3=O)cc2)s1` the inhibition was inconclusive: 55.7%. For `O=C(O)c1ccccc1C(=O)Nc1ccc(Br)c2cccnc12`, the inhibition was inconclusive: 34%. With `O=C(O)c1ccccc1Sc1c([N+](=O)[O-])cc(C(F)(F)F)cc1[N+](=O)[O-]` the inhibition was inconclusive: 33.5%. In the case of `C/C(N)=C(/C#N)C(=O)CSc1nnc(Nc2cccc(C)c2C)s1`, the inhibition is reported as inconclusive: 27.2%. For `O=C(CN1C(=O)C2CC=CCC2C1=O)Nc1nnc(SCc2ccc(Cl)cc2)s1` (stereo not drawn), the inhibition was inconclusive: 61.6%. `Cc1ccc(N=Nc2c(=O)[nH]n3c(=O)cc(C)[nH]c23)cc1` was tested, and the inhibition was inconclusive: 35.4%. For `O=C(CCS(=O)(=O)c1ccccc1)Nc1ccc2c(c1)OCO2`, the inhibition was inconclusive: 33.1%. `CCOc1ccccc1C1NC(=O)NC(C)=C1C(=O)OCc1ccco1` (stereo not drawn) was tested, and the inhibition was inconclusive: 38%. With `NC(=O)c1cnccn1` the inhibition was inconclusive: 44.4%. For `COc1ccc(C(OCC(O)CNCCc2ccc(S(N)(=O)=O)cc2)c2ccc(OC)cc2)cc1` (stereo not drawn), the inhibition was inactive: -0.36%. `Cc1ccc(S(=O)(=O)N2CCCCC2)cc1NC(=O)Nc1ccc(Cl)cc1Cl` was tested, and the inhibition was inconclusive: 40.7%. In the case of `O=c1oc(-c2ccc([N+](=O)[O-])cc2)nc2ccccc12`, the inhibition is reported as inconclusive: 36.7%. With `CC(=O)N1CC=C2C(C#N)=C(N)C(C#N)(C#N)[C@H](c3ccoc3)[C@H]2C1` the inhibition was inconclusive: 54%. With `C=C(C)Cn1c(N2CCCC2)nc2c1c(=O)[nH]c(=O)n2C` the inhibition was inconclusive: 59%. In the case of `Cc1ccc(Nc2ccccc2N)cc1`, the inhibition is reported as inconclusive: 55%. With `CCCOc1ccc(CN(C)c2ncnc(N)n2)cc1` the inhibition was inconclusive: 53.4%. In the case of `O=C(NCCCN1CCCC1)c1ccc2c(c1)N(Cc1cccc(Cl)c1)C(=O)c1ccccc1S2=O` (stereo not drawn), the inhibition is reported as inconclusive: 48.6%. For `Cc1cccc(-n2ncc3c(NCc4ccco4)ncnc32)c1`, the inhibition was inconclusive: 39.9%. In the case of `COc1nc(NCCN2CCOCC2)nc(Nc2ccc([N+](=O)[O-])cc2)n1`, the inhibition is reported as inconclusive: 47.6%. `CCOC(=O)/C=c1\sc2n(c1=O)CCN=2` was tested, and the inhibition was inconclusive: 57.6%. For `Cc1cc(=O)oc(C)c1C(=O)Nc1cnc2ccccc2c1`, the inhibition was inconclusive: 39.9%. In the case of `COc1ccc(NC(=O)CCC(=O)N/N=C/c2ccc([N+](=O)[O-])s2)cc1`, the inhibition is reported as inactive: 23.7%. With `CCN1C(=O)C2(C(C(=O)c3ccc(C)o3)=C(O)C(=O)N2CCCN2CCOCC2)c2ccccc21` (stereo not drawn) the inhibition was inconclusive: 46.2%. In the case of `Cc1cc(C)c(S(=O)(=O)Nc2ccc(C(N)=O)cc2)c(C)c1`, the inhibition is reported as inconclusive: 46.4%. In the case of `O=C(/C=C/c1ccc(OCCCF)cc1)NCc1ccc(Cl)cc1`, the inhibition is reported as inconclusive: 36.3%. For `COc1cccc(CNC(=O)Cn2ncc3c(=O)oc4ccccc4c32)c1`, the inhibition was inactive: -6.25%. In the case of `COc1ccc(N=C2NC(=O)/C(=C/C=C/c3ccccc3)S2)cc1`, the inhibition is reported as inactive: -3.43%. In the case of `COc1ccc(/C=N/NC(=O)Nc2cccc3nsnc23)cc1`, the inhibition is reported as inconclusive: 42.3%. For `Cc1ccsc1C(=O)OCC(=O)Nc1c(Cl)cccc1C(F)(F)F`, the inhibition was inconclusive: 38.3%. `CN(C)c1ccc(NC(=O)CCCc2ccccc2)cc1` was tested, and the inhibition was inconclusive: 62.3%. With `CCN(C(=O)COC(=O)c1oc2ccc(OC)cc2c1C)C1CCCCC1` the inhibition was inactive: -5.77%. For `Cc1ccc(C)n1NC(=O)c1ccc([N+](=O)[O-])cc1`, the inhibition was inconclusive: 47.4%.
